# According to publication PMC12040169 (PLOS Biology, 2025):
# This is one part of the list.
# Tested on: T1, CTL2-GFP (C. trachomatis L2/434/Bu, GFP-expressing)
# T1 construct: L2/434/Bu, GFP-expressing
# Design: species or system HeLa; Intracellular C. trachomatis growth in HeLa cells, bulk GFP fluorescence relative to DMSO
# Details: bulk GFP, single well; 28.5 h, 10 µM; inhibitor
row,Structure (SMILES),% of control remaining
1,Cn1nc(CC(=O)Nc2ccc(OC(=O)c3ccccc3)cc2)c2ccccc2c1=O [CBK264057],125.232%
2,CC1CCCCN1C(=O)CCn1c(-c2ccncc2)cc2cccnc21 (stereo not shown) [CBK282689],120.763%
3,CC(C)c1cc2cc3ccc(=O)oc3cc2o1 [CBK033944],100%
4,CCN1CC2(CCCN(Cc3nnc(-c4cccnc4)o3)C2)CCC1=O (stereo not shown) [CBK306881],147.99%
5,Cc1nn(Cc2ccc(Cl)cc2)c(C)c1NC(=O)CCC(=O)O [CBK287051],129.403%
6,c1ccc2cc(CCN3CCC(Oc4nccnc4OCCN4CCOCC4)CC3)ccc2c1 [CBK082942T],139.969%
7,COc1cc([N+](=O)[O-])ccc1NC(=O)C1CC(Cl)=CCC1C(=O)O (stereo not shown) [CBK264956],100%
8,O=C(CNc1n[nH]c(=O)[nH]c1=O)N/N=C/c1ccc(C(=O)O)cc1 [CBK263529],100%
9,CS(=O)(=O)N1CCCc2cc(-c3csc(N4CCOCC4)n3)ccc21 [CBK305022],133.161%
10,COC(=O)c1ccc(NS(=O)(=O)c2cc(Cl)sc2Cl)cc1 [CBK028684],98.7188%
11,CC(C)OC(=O)c1ccc(NC(=O)c2csc3c2CCCC3)cc1 [CBK058649],132.723%
12,CCOC(=O)c1nc(C)sc1-c1ccnn1S(C)(=O)=O [CBK007130],147.807%
13,CC(C)NC(=O)N[C@H]1CCN2C(=O)c3cc(-c4ccccc4)ccc3NC(=O)[C@H]12 [CBK289351],111.579%
14,CC(C)C(c1nnnn1Cc1ccccc1)N1CCOCC1 (stereo not shown) [CBK028054],108.525%
15,COc1nccnc1N1CCN(CCSC)CC1 [CBK084227],130.696%
16,Cc1csc(C(Cc2cccs2)NC(=O)Cc2c(C)[nH]c(=O)[nH]c2=O)n1 (stereo not shown) [CBK286345],104.761%
17,Cc1cccc(CSc2nc3ncccc3[nH]2)c1 [CBK287963],141.947%
18,C[C@H](Nc1nc(-c2ccc(-c3ccccc3)cc2)cnc1N)c1ccccc1 [CBK063760],146.823%
19,CC(=O)N1CCC(N2CC[C@H](c3nnc(C(C)(C)C)o3)C2)CC1 [CBK289404],123.616%
20,O=C(CN1CCOCC1)N1CCN(CCc2ccccc2)CC1 [CBK200215],106.203%
21,O=C(O)c1ccccc1SC(C[N+](=O)[O-])c1ccccc1Cl (stereo not shown) [CBK097071],89.4338%
22,Cc1nc(C2CCCCN2C(=O)COc2ccccc2)ncc1C(=O)Nc1ccc(F)cc1 (stereo not shown) [CBK285871],128.833%
23,O=S(=O)(Nc1cccc2nonc12)c1ccccc1Br [CBK062577],102.509%
24,O=[N+]([O-])c1cc([N+](=O)[O-])c2cccnc2c1NNc1nncc2ccccc12 [CBK110409],40.507%
25,N#Cc1ccc(CNC2(Cc3cc(CO)on3)COC2)cc1 [CBK289647],160.202%
26,CN(C)C(=O)CN1N=C(C(C)(C)C)Cn2c(cc3ccccc32)C1=O [CBK284210],108.241%

# Ordered by SMILES length (descending): part of the list above
row,Structure (SMILES),% of control remaining
7,COc1cc([N+](=O)[O-])ccc1NC(=O)C1CC(Cl)=CCC1C(=O)O (stereo not shown) [CBK264956],100%
18,C[C@H](Nc1nc(-c2ccc(-c3ccccc3)cc2)cnc1N)c1ccccc1 [CBK063760],146.823%
20,O=C(CN1CCOCC1)N1CCN(CCc2ccccc2)CC1 [CBK200215],106.203%

# Following part

row,Structure (SMILES),% of control remaining
1,CC(SCc1ccccc1)C(=O)NCc1ccnc(OCC(F)(F)F)c1 (stereo not shown) [CBK298325],121.436%
2,O=C(CCN1CCOCC1)Nc1ccc(Br)cc1C(=O)c1ccccc1 [CBK263165],102.314%
3,N/C(=N\OC(=O)COc1cccc2ccccc12)c1ccccn1 [CBK262999],118.629%
4,CCC(NC1CCc2nc(C)cn2C1)c1ccccc1O (stereo not shown) [CBK306012],179.532%
5,Cc1c(C(C)N)cnn1-c1ccc(C#N)cc1 (stereo not shown) [CBK305869],109.882%
6,COc1cccc(C(=O)NCC(c2cccs2)N2CCOCC2)c1 (stereo not shown) [CBK305075],141.123%
7,COc1cc(NC(=O)C(C)Oc2ccc(Cl)cc2C)c(C(=O)O)cc1OC (stereo not shown) [CBK266430],125.086%
8,C/C(=N\N=C1/NC(=O)C(CC(=O)O)S1)c1ccc(CC(C)C)cc1 (stereo not shown) [CBK006661],112.033%
9,CN(C)c1nc(Oc2ccc(OCCOc3ccccc3)nn2)nc(N(C)C)n1 [CBK264976],114.41%
10,CC(C)(Oc1ccc(Cl)cc1)C(=O)Nc1ccc(CN2C(=O)CNC2=O)cc1 [CBK296668],120.134%
11,Cc1sc2nc(SCC(=O)NCCO)nc(N)c2c1C [CBK264423],119.8%
12,CC(Sc1nncs1)C(=O)N1CCCc2ccccc21 (stereo not shown) [CBK304871],104.29%
13,COc1ccc2[nH]cc(/C=C3\C(=O)Nc4ncccc43)c2c1 [CBK017826],115.911%
14,CCc1c(C)nn(-c2ccccc2Cl)c1-c1ccccc1 [CBK016736],148.889%
15,O=S(=O)(N1CCCCCC1)N1CCNCC1 [CBK269219C],139.485%
16,O=C1NC2(CCN(C(=O)C3CCCC3)CC2)Nc2ccccc21 [CBK283962],94.4544%
17,COc1ccc2[nH]cc(CCNC(=O)c3ccco3)c2c1 [CBK116204],98.3933%
18,CC(C)N1CCC(=NNC(=O)C(O)c2ccccc2)CC1 (stereo not shown) [CBK019361],106.593%
19,CCOc1ccc(C(C)(CC(N)=O)C(=O)O)cc1 (stereo not shown) [CBK286778],125.618%
20,O=C1NC(=O)C2(CCN(C(=O)c3csc4c3CCCC4)C2)N1 (stereo not shown) [CBK305533],133.967%
21,Cc1sc(NC(=O)c2ccc(F)cc2Cl)c(C(=O)NCc2cccnc2)c1C [CBK270319],153.774%
22,O=C(N[C@@H]1CNCCC[C@H]1O)c1ccc(OCc2ccccc2)cc1 [CBK289064],117.106%
23,OCc1cccc(-c2cc(NCc3ccccc3)n3nccc3n2)c1 [CBK037113],83.6429%
24,CN1CCC[C@H]1c1nc(-c2ccnc(NS(C)(=O)=O)c2)no1 [CBK288884],139.091%
25,CCN(C)S(=O)(=O)c1ccc(Cl)c(Cl)c1 [CBK045392],143.083%
26,Cc1nc2c(c(=O)[nH]1)CN(Cc1ccc(F)cc1)CC2 [CBK284009],127.262%
